Here are results for one compound from ChEMBL document CHEMBL6134773, “Metal-free synthesis of N-fused quinazolino-quinazoline-diones as a MALAT1 RNA triple helix intercalator” (RSC Med Chem, 2025).

Usually IC50 stands for the midpoint of a concentration-inhibition curve. Higher therefore signals weaker potency.

The test system of this experiment is HeLa. The experiment is described as follows: Cytotoxicity against human HeLa cells measured after 24 hrs by neutral red assay. It is filed as functional.

`COc1cccc2c1C(=O)c1c(O)c3c(c(O)c1C2=O)C[C@@](O)(C(=O)CO)C[C@@H]3O[C@H]1C[C@H](N)[C@H](O)[C@H](C)O1` [DOXORUBICIN]: the IC50 turned out to be 1390 nM. This lies in the single-digit micromolar range.
